Experiment [1] concerns the target human MASP-3 (human). As to the kind of experiment: FACS histogram of DTLacO cells displaying clone M3J5, stained with labeled MASP-3 antigen, against an IgG1-stained negative control.
In experiment [2] the target is human MASP-3 (human). As to the kind of experiment: Saturation binding by flow cytometry: DTLacO cells expressing the antibody, stained with various concentrations of fluorescent-labeled soluble MASP-3 antigen. A general note: A flow cytometer gives signals particle by particle.
The target in experiment [3] is human MASP-3 (human). Briefly: FACS, DTLacO cells displaying the antibody stained with MASP-3 antigen.
In experiment [4] the target is human MASP-3 (human). As to the kind of experiment: FACS histogram of DTLacO cells displaying clone M3M1, stained with labeled MASP-3 antigen, against an IgG1-stained negative control.
For experiment [5], the target named is human MASP-3 (human). As to the kind of experiment: DTLacO screens with CCP1-CCP2-SP fragments.
In the next experiment the target is human MASP-1 (human) (UniProt P48740). Briefly: DTLacO screens with CCP1-CCP2-SP fragments.

Protein sequences, listed by entry. Tags and fused reporters are not part of them. Lines headed by an entry give the natural chain unless they say otherwise; changes in a name come on top.
UniProt P48740: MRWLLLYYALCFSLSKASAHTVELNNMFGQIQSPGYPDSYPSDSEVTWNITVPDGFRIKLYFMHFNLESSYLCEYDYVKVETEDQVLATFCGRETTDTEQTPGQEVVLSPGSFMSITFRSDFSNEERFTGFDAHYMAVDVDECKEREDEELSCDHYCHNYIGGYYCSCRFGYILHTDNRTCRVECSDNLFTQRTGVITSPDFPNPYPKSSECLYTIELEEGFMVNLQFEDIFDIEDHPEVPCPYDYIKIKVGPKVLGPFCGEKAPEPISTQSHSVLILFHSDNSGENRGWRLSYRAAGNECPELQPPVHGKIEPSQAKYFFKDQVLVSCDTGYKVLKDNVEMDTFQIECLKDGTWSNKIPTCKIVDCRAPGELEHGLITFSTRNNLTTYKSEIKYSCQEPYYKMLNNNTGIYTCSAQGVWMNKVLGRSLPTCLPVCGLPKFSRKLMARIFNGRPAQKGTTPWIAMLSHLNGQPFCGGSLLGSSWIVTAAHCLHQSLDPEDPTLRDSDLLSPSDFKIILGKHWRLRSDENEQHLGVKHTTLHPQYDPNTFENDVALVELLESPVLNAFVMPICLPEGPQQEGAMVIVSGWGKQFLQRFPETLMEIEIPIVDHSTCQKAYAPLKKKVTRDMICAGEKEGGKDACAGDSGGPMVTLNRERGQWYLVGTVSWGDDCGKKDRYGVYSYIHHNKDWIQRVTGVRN

Drawing on patent publication US20130344073A1, this text covers binding for four molecules.

These are yes or no findings as the source states them, for the method shown. Some results given as binding are weak or reduced against the parent protein; the word gives no strength.

B1: MASP-3 specific clone M3J5 (antibody, V domains shown)
VH: AVTLDESGGGLQTPGGGLSLVCKASGFTFSSYAMGWMRQAPGKGLEYVAGIRSDGSFTLYATAVKGRATISRDNGQSTVRLQLNNLRAEDTATYFCTRSGNVGDIDAWGHGTEVIVSS
VL: ALTQPASVSANPGETVKITCSGGYSGYAGSYYYGWYQQKAPGSAPVTLIYYNNKRPSDIPSRFSGSLSGSTNTLTITGVRADDEAVYFCGSADNSGAAFGAGTTLTVL
In the case of B1, the binding entry with human MASP-3 (human) [1], in the experiment with human MASP-3 (human) [2] and with human MASP-3 (human) [3] was “binds” each time.

B2: MASP-3 specific clone M3M1 (antibody, V domains shown)
VH: AVTLDESGGGLQTPGGGLSLVCKASGFDFSSYQMNWIRQAPGKGLEFVAAINRFGNSTGHGAAVKGRVTISRDDGQSTVRLQLSNLRAEDTATYYCAKGVYGYCGSYSCCGVDTIDAWGHGTEVIVSS
VL: ALTQPASVSANPGETVKITCSGGGSYAGSYYYGWYQQKAPGSAPVTLIYYNNKRPSDIPSRFSGSLSGSTNTLTITGVRADDEAVYFCGSADNSGAAFGAGTTLTVL
B2: the binding result with human MASP-3 (human) [4] and with human MASP-3 (human) [3] was “binds” throughout.

B3: clone 1E10 (antibody, human IgG1, V domains shown)
VH: AVTLDESGGGLQTPGGALSLVCKASGFTFSSYDMVWVRQAPGKGLEFVAGISRNDGRYTEYGSAVKGRATISRDNGQSTVRLQLNNLRAEDTATYYCARDAGGSAYWFDAGQIDAWGHGTEVIVSS
VL: ALTQPASVSANPGETVKITCSGGGSYAGSYYYGWYQQKAPGSAPVTLIYYNNKRPSDIPSRFSGSLSGSTNTLTITGVRADDEAVYFCGSADNSGAAFGAGTTLTVL
Take B3: the binding result in the experiment with human MASP-3 (human) [5] and with human MASP-1 (human) was “binds” in each case.

B4: clone D14 (antibody, human IgG1, V domains shown)
VH: AVTLDESGGGLQTPGGALSLVCKASGFTFSSYAMHWVRQAPGKGLEWVAGIYKSGAGTNYAPAVKGRATISRDNGQSTVRLQLNNLRAEDTGTYYCAKTTGSGCSSGYRAEYIDAWGHGTEVIVSS
VL: ALTQPASVSANPGETVKITCSGGGSYAGSYYYGWYQQKAPGSAPVTLIYYNNKRPSDIPSRFSGSLSGSTNTLTITGVRADDEAVYFCGSADNSGAAFGAGTTLTVL
B4: the binding result in the experiment with human MASP-3 (human) [5] and in the experiment with human MASP-1 (human) was “binds” throughout.
